The exact form of at least one protein or probe is not confirmed. Results from cells or extracts need not show a direct contact. Tags and fusion partners may be left off the protein sequences shown.
Tested on: T1, FANCD2-L (monoubiquitinated xFANCD2, K563) (Xenopus laevis)
T1 sequence (limits assumed): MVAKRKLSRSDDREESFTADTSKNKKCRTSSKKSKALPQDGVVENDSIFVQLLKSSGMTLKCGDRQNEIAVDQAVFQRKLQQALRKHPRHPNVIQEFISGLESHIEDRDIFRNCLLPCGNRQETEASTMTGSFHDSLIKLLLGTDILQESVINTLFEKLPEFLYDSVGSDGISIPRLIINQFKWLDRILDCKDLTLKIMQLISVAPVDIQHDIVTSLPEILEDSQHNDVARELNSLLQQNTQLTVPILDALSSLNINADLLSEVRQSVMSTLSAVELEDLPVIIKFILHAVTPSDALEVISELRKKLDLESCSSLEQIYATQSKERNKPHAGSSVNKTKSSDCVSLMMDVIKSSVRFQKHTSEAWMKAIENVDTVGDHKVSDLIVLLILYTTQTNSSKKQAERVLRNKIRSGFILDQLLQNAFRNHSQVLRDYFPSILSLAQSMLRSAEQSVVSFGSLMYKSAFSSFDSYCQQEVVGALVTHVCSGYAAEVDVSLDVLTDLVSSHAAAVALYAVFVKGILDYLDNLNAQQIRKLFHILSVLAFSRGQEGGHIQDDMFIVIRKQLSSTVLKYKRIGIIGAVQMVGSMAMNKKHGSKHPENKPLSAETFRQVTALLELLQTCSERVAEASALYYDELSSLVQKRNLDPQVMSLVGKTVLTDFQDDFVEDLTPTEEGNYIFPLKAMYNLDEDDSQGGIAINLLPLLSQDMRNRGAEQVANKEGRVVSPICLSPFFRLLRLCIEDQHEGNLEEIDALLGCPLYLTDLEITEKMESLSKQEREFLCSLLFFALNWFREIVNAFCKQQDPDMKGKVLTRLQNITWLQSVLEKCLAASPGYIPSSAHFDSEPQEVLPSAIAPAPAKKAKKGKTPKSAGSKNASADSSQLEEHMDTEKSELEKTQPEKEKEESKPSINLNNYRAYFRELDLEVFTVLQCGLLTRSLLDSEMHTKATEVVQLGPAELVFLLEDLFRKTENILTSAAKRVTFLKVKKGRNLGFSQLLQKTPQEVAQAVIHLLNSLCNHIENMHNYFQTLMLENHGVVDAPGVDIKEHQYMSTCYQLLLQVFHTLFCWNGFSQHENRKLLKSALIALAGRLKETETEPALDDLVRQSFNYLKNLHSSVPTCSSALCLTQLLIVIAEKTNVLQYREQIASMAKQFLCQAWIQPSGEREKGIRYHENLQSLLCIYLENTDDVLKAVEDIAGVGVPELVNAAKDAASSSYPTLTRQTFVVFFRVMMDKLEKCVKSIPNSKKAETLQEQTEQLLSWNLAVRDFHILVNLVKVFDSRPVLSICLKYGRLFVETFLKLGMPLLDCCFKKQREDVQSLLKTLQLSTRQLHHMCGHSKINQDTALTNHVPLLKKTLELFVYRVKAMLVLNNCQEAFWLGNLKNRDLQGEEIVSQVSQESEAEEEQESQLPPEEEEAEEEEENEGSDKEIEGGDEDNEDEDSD
Assay: pull-down
Settings: Xenopus egg extract, protein in an extract, label: biotin (streptavidin magnetic beads)

Row | Sequence | binding result (3'-biotin on strand 3 (SEQ 9), similar amount to dsDNA68 at 1:1 molar ratio, folded or branched DNA) | binding result (3'-biotin on strand 5 (SEQ 11), bound amount not linear with DNA)
1 | GGTTGACGTTCTAGTGTGACCGCAATACGGATAAGGGCTGAGCACGCCGACGAACATAC / GTATGTTCGTCGGCGTGCTCAGCCCTTATCCCAGAATGCACCAACAGTTCCTCAAGATAGAGACT / GAGTCTCTATCTTGAGGAACTGTTGGTGCATTCTGGGATAAGGGCACTATGGCTCCACTGATGTCGTAAGCATCC / GGATGCTTACGACATCAGTGGAGCCATAGTGCCCTTATCCGTATTGCGGTCACACTAGAACGTCAACC [HJ-DNA68] | binds | 
2 | GGTTGACGTTCTAGTGTGACCGCAATACGGATAAGGGCACTATGGCTCCACTGATGTCGTAAGCATCC (double strand) [dsDNA68] |  | binds

From patent US20080318236
